Measurements reported in PubChem BioAssay AID652259 (Drosophila RNAi Screening Center, 2013)

Screen: 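Genome-wide hunt for genes that control Wingless pathway activity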 (primary screen)
Cells: Drosophila clone 8 imaginal disc epithelial cells
Reagents: long dsRNA against Drosophila genes
Conditions: pathway stimulated by co-transfected Wingless expression plasmid
Read-out: 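Firefly luciferase from a tcf-site Wingless reporter, measured alongside co-transfected Renilla luciferase that tracks transfection; pathway stimulated by a Wingless plasmid; the firefly-to-Renilla ratio is not deposited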
Scale: firefly reporter light: higher = more Wg reporter light, before normalisation; Renilla control light: higher = more transfected or surviving cells
Active means: 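a knock-down is a candidate when at least two out of four statistical tests show it departing from its plate mean; one test alone signals a weak candidate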
Calls: active = candidate regulator (raises or lowers reporter); inactive = not a candidate
The deposit covers about 22,000 reagents; shown is a random part of those that have a named target and a result. In the full data, 233 (1.1%) got an active call. 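Light values are raw, unnormalised plate reads; the ratio scores behind the reporter calls were not deposited.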 Reagent sequences are not shown. The record does not give: the amount of reagent, the time to read-out, the dose of the treatment.

The first 5 records, ahead of the listing:
| gene | dsRNA | firefly reporter light, replicate 1 | firefly reporter light, replicate 2 | Renilla control light, replicate 1 | Renilla control light, replicate 2 | activity call |
| --- | --- | --- | --- | --- | --- | --- |
| CG5114 | DRSC10482 | 8125 | – | 3875 | – | inactive |
| CG7829 | DRSC16322 | 7320 | – | 2668 | – | inactive |
| Edg78E (Ecdysone-dependent gene 78E) | DRSC11863 | 16979 | – | 5936 | – | inactive |
| CG4409 | DRSC06869 | 5286 | – | 2307 | – | inactive |
| Pdf (Pigment-dispersing factor) | DRSC16786 | 3187 | – | 759 | – | inactive |

The list itself, repeating the preview:
| gene | dsRNA | firefly reporter light, replicate 1 | firefly reporter light, replicate 2 | Renilla control light, replicate 1 | Renilla control light, replicate 2 | activity call |
| --- | --- | --- | --- | --- | --- | --- |
| CG5114 | DRSC10482 | 8125 | – | 3875 | – | inactive |
| CG7829 | DRSC16322 | 7320 | – | 2668 | – | inactive |
| Edg78E (Ecdysone-dependent gene 78E) | DRSC11863 | 16979 | – | 5936 | – | inactive |
| CG4409 | DRSC06869 | 5286 | – | 2307 | – | inactive |
| Pdf (Pigment-dispersing factor) | DRSC16786 | 3187 | – | 759 | – | inactive |
| Eig71Ei | DRSC11156 | 10145 | – | 4516 | – | inactive |
| CG30398 | DRSC03891 | 16424 | – | 8849 | – | inactive |
| CG31974 | DRSC00522 | 2890 | 6022 | 1047 | 2128 | inactive |
| CG3634 | DRSC11747 | 13369 | – | 3652 | – | inactive |
| Gen (XPG-like endonuclease) | DRSC09679 | 6161 | – | 2892 | – | inactive |
| CG6659 | DRSC20003 | 2316 | 7610 | 845 | 3014 | inactive |
| CG6204 | DRSC15991 | 3186 | 5976 | 1129 | 1841 | inactive |
| AstCC (Allatostatin double C) | DRSC02404 | 2225 | 7192 | 867 | 3986 | inactive |
| CG6236 | DRSC15999 | 4313 | – | 1696 | – | inactive |
| Trs33 (TRAPP subunit 33) | DRSC15990 | 17882 | – | 3544 | – | inactive |
| gnu (giant nuclei) | DRSC10497 | 3464 | – | 1618 | – | inactive |
| CG17147 | DRSC10249 | 13584 | – | 2885 | – | inactive |
| CG6012 | DRSC02921 | 3372 | 5825 | 1186 | 2769 | inactive |
| Mondo | DRSC02667 | 14780 | – | 2437 | – | inactive |
| Mondo | DRSC02668 | 2295 | 6781 | 726 | 2744 | inactive |
| Mondo | DRSC22006 | 3.06e5 | 3.39e5 | 1.16e5 | 1.06e5 | inactive |
| fog (folded gastrulation) | DRSC20646 | 1745 | 7795 | 874 | 2115 | inactive |
| CG5693 | DRSC02878 | 2428 | 5771 | 759 | 3168 | inactive |
| CG14963 | DRSC08422 | 4480 | – | 1833 | – | inactive |
| gkt (glaikit) | DRSC00821 | 2103 | 8189 | 683 | 3093 | inactive |
| Vha100-5 (Vacuolar H[+] ATPase 100kD subunit 5) | DRSC02175 | 2498 | 4955 | 1122 | 1920 | inactive |
| CG13708 | DRSC08317 | 1360 | 6955 | 838 | 3105 | inactive |
| Ing3 (Inhibitor of growth family, member 3) | DRSC20002 | 2957 | 9563 | 981 | 3344 | inactive |
| ihog (interference hedgehog) | DRSC03157 | 12675 | – | 4250 | – | inactive |
| CG6171 | DRSC15982 | 5657 | – | 2408 | – | inactive |
| Drp1 (Dynamin related protein 1) | DRSC00574 | 9354 | – | 3394 | – | inactive |
| mfas (midline fasciclin) | DRSC16997 | 8421 | – | 2866 | – | inactive |
| Plp (Pericentrin-like protein) | DRSC10006 | 7288 | – | 3074 | – | inactive |
| Plp (Pericentrin-like protein) | DRSC10333 | 4512 | – | 1782 | – | inactive |
| Plp (Pericentrin-like protein) | DRSC10700 | 2759 | – | 1200 | – | inactive |
| CG8100 | DRSC10961 | 7211 | – | 3312 | – | inactive |
| vtd (verthandi) | DRSC20839 | 20754 | – | 8352 | – | inactive |
| Golgin84 (Golgin-84) | DRSC15269 | 12647 | – | 11344 | – | inactive |
| CG7483 | DRSC16249 | 18280 | – | 6368 | – | inactive |
| CG7483 | DRSC22432 | 6.22e5 | 6.28e5 | 1.67e5 | 1.77e5 | inactive |
| mal (maroon-like) | DRSC20581 | 2916 | 5826 | 1073 | 2459 | inactive |
| Pkcdelta (Protein kinase C delta) | DRSC19356 | 19639 | – | 8445 | – | inactive |
| Pkcdelta (Protein kinase C delta) | DRSC19399 | 19147 | – | 8410 | – | inactive |
| CG4360 | DRSC15566 | 18082 | – | 4161 | – | inactive |
| CG8907 | DRSC16453 | 2067 | 7936 | 1483 | 2064 | inactive |
| Caper | DRSC02137 | 21415 | – | 4976 | – | inactive |
| CG8908 | DRSC07297 | 6134 | – | 2295 | – | inactive |
| Cf2 (Chorion factor 2) | DRSC00744 | 3165 | 6448 | 483 | 674 | inactive |
| CG33301 | DRSC02778 | 3011 | 4388 | 1189 | 2912 | inactive |
| Mrp4 (Multidrug resistance protein 4) | DRSC14931 | 21696 | – | 3786 | – | inactive |
| CG2608 | DRSC02709 | 6770 | – | 2636 | – | inactive |
| CG6870 | DRSC02998 | 2497 | 9505 | 1034 | 3850 | inactive |
| CG17841 | DRSC17737 | 1818 | 5680 | 928 | 1842 | inactive |
| CG12065 | DRSC17798 | 2784 | 3570 | 749 | 1568 | inactive |
| CG12065 | DRSC17799 | 22358 | – | 10827 | – | inactive |
| CG9399 | DRSC16488 | 14468 | – | 2358 | – | inactive |
| CNPYb (Canopy b) | DRSC09845 | 5690 | – | 2323 | – | inactive |
| Yp3 (Yolk protein 3) | DRSC20302 | 21974 | – | 14921 | – | inactive |
| Rif1 (Rap1 interacting factor 1) | DRSC05593 | 20080 | – | 13289 | – | inactive |
| Tusp | DRSC15838 | 6806 | – | 2836 | – | inactive |
| gcl (germ cell-less) | DRSC07623 | 6676 | – | 2236 | – | inactive |
| CG6180 | DRSC02937 | 9988 | – | 3138 | – | inactive |
| Xpd (Xeroderma pigmentosum D) | DRSC04666 | 23784 | – | 2633 | – | inactive |
| CG31624 | DRSC02617 | 17480 | – | 3786 | – | inactive |
| nAChRbeta2 (nicotinic Acetylcholine Receptor beta2) | DRSC17010 | 1684 | 6816 | 1130 | 1797 | inactive |
| CheB42a (Chemosensory protein B 42a) | DRSC22881 | 8.39e5 | 8.12e5 | 4.07e5 | 3.89e5 | inactive |
| Rel (Relish) | DRSC16819 | 7222 | – | 2315 | – | inactive |
| Mur29B (Mucin related 29B) | DRSC01018 | 20891 | – | 10903 | – | inactive |
| Mur29B (Mucin related 29B) | DRSC02376 | 3771 | 8806 | 1465 | 4503 | inactive |
| Ostgamma (Oligosaccharide transferase gamma subunit) | DRSC03074 | 6060 | – | 3697 | – | inactive |
| CG10055 | DRSC12503 | 13444 | – | 3915 | – | inactive |
| mdu (meduse) | DRSC19860 | 29723 | – | 4976 | – | inactive |
| CG10513 | DRSC14248 | 4091 | 7385 | 1413 | 1056 | inactive |
